PubChem BioAssay AID1347076 (National Center for Advancing Translational Sciences (NCATS), 2019)
The campaign covered roughly 400,000 compounds. About 13,000 (3.2%) were called active. This list was built around the results that the source calls inconclusive (neither active nor inactive); the mix of calls is not that of the screen. The call rests on the fitted dose curve; in most records, active means well fitted cell-killing curve with a large enough effect; inconclusive means small, poorly fitted or top-dose-only effect, or effect the other way; inactive means flat fitted curve, though single readings scatter. Potencies beside an inconclusive call are fits to weak or partial responses and may not hold up.

Experiment: qHTS assay for MDR1-selective chemotherapeutics: Primary screen using the drug-selected MDR subline cells KB-V1; further: nearly all actives have a fitted effect of over 60% in size
Settings: KB-V1 MDR cells viability, CellTiter-Glo, 72 h; activity change, negative = cytotoxicity: at 46.1 µM (top of the series)
Method in brief: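 Readout: CellTiter-Glo luminescence, 10 min after addition. Cells: KB-V1 MDR subline, 72 h at 37 degrees C with compound. Analysis: corrected, normalized data fitted to concentration-effect curves.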
On the % scale 0 is the no-effect control and ±100 the full control effect; potency means the concentration at half of the fitted maximal effect.

Structure (SMILES)	activity change, negative = cytotoxicity	Potency
O=C(N/N=C/c1ccc(O)cc1)c1[nH]c2ccc(Br)cc2c1-c1ccccc1	inactive: -1.95%	–
CCn1c(C(=O)N2CCCC(C(=O)NCCCc3ccccc3)C2)cc2sccc21 (configuration not stated)	–	active: 23.1 µM
CSc1nc(Cl)cc(N(CCO)CCO)n1	–	inconclusive: 9.2 µM [rising, partial curve]
Cc1ccc(C(=O)Nc2onc(C)c2C#N)cc1	–	inconclusive: 4.61 µM [rising, full curve, poor fit]
O=C(Nc1ccc2c(c1)OCO2)C1Cc2c(-c3ccc4c(c3)OCO4)ccnc2O1 (configuration not stated)	–	active: 8.2 µM
COc1cccc(C(C(=O)NC2CCCC2)N(CC2CCCO2)C(=O)Cc2cccs2)c1 (configuration not stated)	–	inconclusive: 14.6 µM [cytotoxic, single point]
CCOc1ccc(/C=C/C(=O)C(C(N)=O)=C2SCCS2)cc1	–	inconclusive: 8.2 µM [cytotoxic, partial curve]
COc1ccc(CCNC(=O)COC(=O)C2CC2)cc1	–	inconclusive: 29.1 µM [rising, single point]
Nc1ccc2cc3[nH]c4cc(N)ccc4c3nc2c1	inactive: 0%	–
CCCCn1c(N)c(N(CC(C)C)C(=O)c2cc(=O)[nH]c3ccccc23)c(=O)[nH]c1=O	–	inconclusive: 23.1 µM [rising, partial curve, poor fit]
O=C(Nc1ccc2ccccc2c1)c1ccccc1O	–	inconclusive: 18.4 µM [cytotoxic, single point]
CCN(Cc1ccccc1)C(=O)c1cc(-c2ccc(OC)c(OC)c2)nc2ccccc12	–	inconclusive: 4.11 µM [cytotoxic, full curve, poor fit]
COc1ccc(C(CC(=O)NCc2ccccc2)C(C)C)cc1 (configuration not stated)	–	inconclusive: 29.1 µM [cytotoxic, single point]
O=C(c1ccc(Br)cc1)c1coc2ccc(O)cc12	inactive: -15.1%	–
CCOC(=O)N=Nc1c2ccccc2c2nc3no[nH]c3nc12	–	active: 2.91 µM
O=C(c1cc(F)ccc1F)C1CCCN(Cc2cccn2-c2ccccn2)C1 (configuration not stated)	–	inconclusive: 16.4 µM [cytotoxic, partial curve]
CCCn1c(N)c(N(CCOC)C(=O)/C=C/c2ccc(C(=O)OC)cc2)c(=O)[nH]c1=O	–	inconclusive: 29.1 µM [rising, single point]
CC(C)C(=O)N1CCN(c2ccc(NC(=O)COc3ccccc3[N+](=O)[O-])cc2)CC1	–	active: 18.4 µM
Cc1cc2ccccc2n2c(SCC(=O)Nc3cccc(C(F)(F)F)c3)nnc12	inactive: 0%	–
CCCOc1ccc(OCC(=O)c2[nH]c(C)c(C(C)=O)c2C)cc1	–	active: 2.91 µM
CC(C)(CNC(=O)c1cccc(S(=O)(=O)Nc2ccc(SC(F)F)cc2)c1)N1CCOCC1	–	inconclusive: 18.4 µM [rising, single point]
COc1ccc(C)cc1Nc1ncnc2c1nnn2Cc1ccccc1Cl	–	inconclusive: 20.6 µM [cytotoxic, single point]
CC(=O)c1cccc(NC(=O)c2c(C)nn(-c3ccc(F)cc3)c2-n2cccc2)c1	–	inconclusive: 9.2 µM [cytotoxic, partial curve]
Cc1[nH]c(=S)c(C#N)c(C)c1CCC#N	inactive: -2.16%	–

Quoted from the entries so far, two compounds:
Structure (SMILES)	activity change, negative = cytotoxicity	Potency
COc1ccc(C(CC(=O)NCc2ccccc2)C(C)C)cc1 (configuration not stated)	–	inconclusive: 29.1 µM [cytotoxic, single point]
O=C(c1ccc(Br)cc1)c1coc2ccc(O)cc12	inactive: -15.1%	–

(next part)

Structure (SMILES)	activity change, negative = cytotoxicity	Potency
CCCCCN1C(C(=O)c2ccccc2)=C(NC(C)=O)c2ccccc2S1(=O)=O	–	inconclusive: 13 µM [cytotoxic, partial curve, poor fit]
O=C(CSc1ncc2c(n1)-c1cc(Cl)ccc1N(Cc1ccccc1F)S2(=O)=O)Nc1cccc(C(F)(F)F)c1	inactive: 9.46%	–
CC(C)c1ccccc1NC(=O)c1ccc2ncsc2c1	–	inconclusive: 9.2 µM [cytotoxic, partial curve]
Cc1ccnc(N/N=C/c2ccco2)n1	inactive: -2.82%	–
COc1cccc(CN(C)C(=O)CN2C(=O)NC3(CCCc4ccccc43)C2=O)c1 (configuration not stated)	–	active: 20.6 µM
Cc1nc(C#N)c(N/N=C/c2c(F)cccc2Cl)o1	inactive: 18.6%	–
Cc1cccc(CNC(=O)c2sc3ncnc(N(C)C4CCCCC4)c3c2C)c1	inactive: -9.6%	–
COC(=O)c1cc(C#N)c(N(C)Cc2ccccc2)nc1C	inactive: -28.7%	–
COc1ccc(-c2cc(C(=O)Nc3cccc(S(=O)(=O)NCc4ccco4)c3)c3ccccc3n2)cc1OC	–	inconclusive: 9.2 µM [cytotoxic, partial curve, poor fit]
COc1ccc(-c2ccc(CN3C(C)C(=O)N(Cc4cn(CC5CCCCC5)nn4)CCS3(=O)=O)cc2)cc1 (configuration not stated)	–	inconclusive: 29.1 µM [cytotoxic, single point]
O=C(CSc1nnc(NC(=O)c2ccco2)s1)NC1CCCCC1	–	active: 23.1 µM
Cc1cc(Br)cc(C)c1OCC(=O)NNC(=O)c1cccs1	–	inconclusive: 14.6 µM [cytotoxic, partial curve]
COc1ccc(Nc2nc(-c3ccccc3)nc3ccccc23)cc1	–	inconclusive: 14.6 µM [cytotoxic, single point]
CCCCN(C=O)c1c(CC)nc2ccc(C(=O)NCCN(C)C)cn12	inactive: 2.08%	–
O=C(CN(C(=O)c1csnn1)c1ccc(Cl)cc1)NCc1ccc2c(c1)OCO2	–	inconclusive: 29.1 µM [cytotoxic, single point]
CCN(CC)CCNC(=O)c1nn(-c2ccc(Cl)cc2)c2c1CCc1cc(OC)ccc1-2	–	inconclusive: 10.3 µM [cytotoxic, partial curve, poor fit]
Cc1ccc(-n2c(C)nc3oc4ccccc4c(=O)c3c2=O)cc1	–	inconclusive: 23.1 µM [cytotoxic, partial curve]
CCCN(C(=O)COC(=O)CSc1ccc([N+](=O)[O-])cc1)C1CCS(=O)(=O)C1 (configuration not stated)	–	inconclusive: 14.6 µM [rising, single point]
CCCCN1CN(S(=O)(=O)c2ccc(OC)cc2)c2nc3ccccc3nc21	inactive: -15.7%	–
CCCNC(=O)C/C(C)=N/NC(=O)COc1ccc(C)cc1Br	–	inconclusive: 16.4 µM [rising, partial curve, poor fit]
CCn1c(=O)c2c(nc(SCC(=O)Nc3ccccc3)n2C)n(C)c1=O	–	inconclusive: 10.3 µM [cytotoxic, partial curve]
Cc1nc2ccccc2c(=O)n1/N=C/c1c(O)ccc2ccccc12	inactive: -11.7%	–
COc1ccc(C(C)=O)cc1COc1ccc(Cl)cc1Cl	–	inconclusive: 29.1 µM [cytotoxic, partial curve, poor fit]
COc1cc(C=C(C#N)C(=O)c2ccccc2)cc(OC)c1OC	inactive: -4%	–

3 of the compounds above, bar-delimited:
Structure (SMILES) | activity change, negative = cytotoxicity | Potency
CCCN(C(=O)COC(=O)CSc1ccc([N+](=O)[O-])cc1)C1CCS(=O)(=O)C1 (configuration not stated) | – | inconclusive: 14.6 µM [rising, single point]
CCCCN1CN(S(=O)(=O)c2ccc(OC)cc2)c2nc3ccccc3nc21 | inactive: -15.7% | –
CCCNC(=O)C/C(C)=N/NC(=O)COc1ccc(C)cc1Br | – | inconclusive: 16.4 µM [rising, partial curve, poor fit]

Carrying on.

Structure (SMILES)	activity change, negative = cytotoxicity	Potency
O=C(c1cc(-c2ccccc2)on1)N1CCN(C(=O)c2ccco2)CC1	inactive: -18.2%	–
CCN(C(=O)c1cnc(N2CCOCC2)c2ccccc12)c1cc(C)ccc1C	inactive: -10.3%	–
O=C(O)/C=C/C(=O)Nc1cccnc1	–	inconclusive: 25.9 µM [rising, single point]
COc1ccc(S(=O)(=O)Nc2cccc(-c3ccc4nncn4n3)c2)cc1F	–	inconclusive: 18.4 µM [cytotoxic, single point]
N#Cc1c(SCc2c(Cl)cccc2Cl)nc(N)[nH]c1=S	–	inconclusive: 20.6 µM [rising, single point]
CCn1c(SCc2cccc(C)c2)nnc1-c1ccccc1	–	active: 14.6 µM
COc1ccccc1C(=O)NNC(=O)c1ccc(Br)cc1	–	inconclusive: 23.1 µM [cytotoxic, single point]
O=C(NC(=S)Nc1nc2c(s1)CCCC2)c1ccc(C(=O)c2ccccc2)cc1	–	active: 4.11 µM
CC1(C)C(C=C(Cl)Cl)C1C(=O)N(Cc1ccccc1Cl)C1CCS(=O)(=O)C1 (configuration not stated)	–	active: 14.6 µM
COc1ccc(-c2cnc3c(NC(C)=O)cc(-c4ccsc4)cn23)cc1OC	–	inconclusive: 29.1 µM [cytotoxic, single point]
COc1ccccc1NC(=O)COC(=O)C1CC1	–	inconclusive: 29.1 µM [rising, partial curve, poor fit]
CS(=O)(=O)N1CCN(C2C3CC4CC(C3)CC2C4)CC1 (configuration not stated)	inactive: -17.8%	–
Cc1ccc(C(=O)C2CCN(CC(=O)NCc3ccc(F)cc3)CC2)cc1	–	inconclusive: 2.59 µM [cytotoxic, full curve]
CC/C(=N\NC(=O)c1nnn(-c2nonc2N)c1-c1cccc(OC)c1)c1ccc(C)cc1	–	inconclusive: 29.1 µM [cytotoxic, single point]
Cc1nc2ccccc2c2oc(C(=O)N3CCC(N4CCCCC4)CC3)cc12	inactive: 6.02%	–
COc1ccc(S(=O)(=O)N2CCCC2)c(Cl)c1Cl	–	inconclusive: 6.51 µM [cytotoxic, partial curve]
COc1cccc(NC(=O)C2CCN(S(=O)(=O)c3ccccc3)CC2)c1	–	inconclusive: 23.1 µM [cytotoxic, partial curve, poor fit]
CCOc1ccc(CNC(=O)C2=Cc3cc(Br)ccc3OC2)cc1OC	inactive: 0.961%	–
O=C(NCc1ccc2c(c1)OCO2)c1ccc(Cl)c(S(=O)(=O)NCc2ccccc2)c1	–	active: 23.1 µM
CCCCCC(=O)NNC1=NCC(Cc2ccccc2)S1 (configuration not stated)	–	inconclusive: 29.1 µM [cytotoxic, single point]
O=C(NCCc1ccccc1)C(=O)NCC1OCCN1S(=O)(=O)c1ccc([N+](=O)[O-])cc1 (configuration not stated)	–	inconclusive: 23.1 µM [cytotoxic, single point]
Cc1cccc(N(C)Cc2nnc(-c3cccc(Br)c3)o2)c1	inactive: -3.43%	–
N=c1ncn(C2OC(CO)C(O)C2O)c2nc(Br)[nH]c12 (configuration not stated)	–	inconclusive: 1.64 µM [rising, partial curve, poor fit]
[O-]/[N+](=C\c1ccccc1)c1ccc(Br)cc1	–	inconclusive: 5.8 µM [rising, partial curve, poor fit]
